Among the data in PMC7862700 are binding signal values, retold here.

Some of the results follow. The exact form of the protein is not confirmed.

This experiment has as its target T1, ETS1 (UniProt P14921).
T1 sequence: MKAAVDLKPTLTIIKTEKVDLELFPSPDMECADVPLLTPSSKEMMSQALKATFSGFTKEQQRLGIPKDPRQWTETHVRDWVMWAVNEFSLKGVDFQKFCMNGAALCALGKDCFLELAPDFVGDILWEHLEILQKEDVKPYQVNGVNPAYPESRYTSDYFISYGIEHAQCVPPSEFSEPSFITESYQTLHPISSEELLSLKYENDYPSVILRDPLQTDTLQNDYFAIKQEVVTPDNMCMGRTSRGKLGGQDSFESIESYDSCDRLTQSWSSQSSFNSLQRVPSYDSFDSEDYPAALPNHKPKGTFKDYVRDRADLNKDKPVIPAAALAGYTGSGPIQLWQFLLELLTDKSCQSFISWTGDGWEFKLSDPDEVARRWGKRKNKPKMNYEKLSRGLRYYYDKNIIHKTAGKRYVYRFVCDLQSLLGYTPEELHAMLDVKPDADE
The experiment in a line: DAPPL (digital affinity profiling via proximity ligation, sequencing). Conditions: 10 mM Tris-HCl pH 7.5, 50 mM NaCl, 1 mM DTT, 4% glycerol, room temperature, 30 min; GST-TFs on glutathione beads, 16-mer random dsDNA library, 0.1% …; high values mean tight binding; double strand, one strand shown; scale: fold enrichment (6-mer frequency, TF over GST control).
CACTAA returned a binding signal of 1.21.
In turn, GCTGAA came in with a binding signal of 1.11.
CCCGCC gave a binding signal of 1.44.
In turn, TACTGG had a binding signal of 1.24.
Turning to CTACGA, the binding signal was 1.2.
In turn, GCTTGC came in with a binding signal of 1.31.
As for CGACTC, the binding signal was found to be 1.33.
CAAATA displayed a binding signal of 1.12.
AAAATT returned a binding signal of 1.38.
The same measure for TCAACC: 1.31.
The same measure for GCCTTG: 1.35; for TTTGAG: 1.
For TACGTA, the binding signal came to 1.38.
As for ACCCTA, the binding signal was found to be 1.3.
In turn, TCGACA yielded a binding signal of 1.42.
On to ATCTAA, for which the binding signal is 1.2.
The sequence CGCGTC registered a binding signal of 1.13.
Sequence AAAAGA registered a binding signal of 1.2.
With ACACAC, the binding signal came out at 1.3.
GATGAT yielded a binding signal of 1.32.
TGCAAC returned a binding signal of 1.34.
As to CTTGGA, the binding signal stood at 1.14.
In turn, ATGGAT gave a binding signal of 1.08.
In the case of GTCTCA, the binding signal amounted to 1.37.
CCTGGA came in with a binding signal of 1.41.
The same measure for CTGCCG: 1.33; for AACTTA: 1.3.
As for CTATTC, the binding signal is 1.23.
On to GATTCC, for which the binding signal was 1.09.
In turn, GCCCTT had a binding signal of 1.29.
The same measure for ATCAAT: 1.03; for CATCCG: 2.04; for TTTAGC: 1.15.
The same measure for TAGCGG: 1.04; for TAAAAC: 1.15.
ACTACC had a binding signal of 1.63.
The sequence CCGATC came in with a binding signal of 1.16.
Consider CCTTTC, for which the binding signal is 1.65.
CCTCTC showed a binding signal of 1.48.
